Legend:
[1] = In vitro reaction with phenethylamine (TLC monitoring, product isolation); conditions: 0.5 mmol each in water/alcohol, 37±5° C.
[2] = In vitro reaction with ammonia (TLC monitoring, product isolation); conditions: 0.5 mmol each in water/alcohol, 37±5° C.

| SMILES | In vitro reaction with phenethylamine [1] | In vitro reaction with ammonia [2] |
| --- | --- | --- |
| C[C@H]1COC2=C1C(=O)C(=O)c1c2ccc2c1CCCC2(C)C [Cryptotanshinone, 1,6,6-trimethyl-1,2,6,7,8,9-hexahydrophenanthrene[1,2-b]furan-10,11-dione] | can react with phenethylamine in vitro | can react with ammonia in vitro |
| Cc1cccc2c3c(ccc12)C1=C(C(=O)C3=O)C(C)CO1 (stereo not drawn) [Dihydortanshinone I, 1,6-dimethyl-1,2-dihydrophenanthrene[1,2-b]furan-10,11-dione] | can react with phenethylamine in vitro | can react with ammonia in vitro |
| Cc1coc2c1C(=O)C(=O)c1c-2ccc2c1CCCC2(C)C [Tanshinone IIA] | No apparent reaction | No apparent reaction |

— patent publication US20040024056A1, “Dihydrofuran cyclic tanshinones used in treating hyperammonemia and hepatic encephalopathy” (priority 2001, published 2004)
